Measured values reported in the supplement of paper PMC12067093, “Discovery and optimisation of a covalent ligand for TRIM25 and its application to targeted protein ubiquitination” (Chemical Science, 2025).
Some of the results follow.

Compound: Cc1cc(ccc1-c1ccccc1)C(=O)N1CCCN(CC1)C(=O)CCl [compound 10]
Experiment: probe-labelled cysteine peptide fold change vs DMSO (competition) (log2 fold change); higher = less target engagement (more negative = stronger competition)
Conditions: THP-1, incubation time: 4 h
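Also: competitive profiling in live THP-1 cells: cysteine peptides tagged with an iodoacetamide desthiobiotin (IA-DTB) probe, intensity after compound treatment relative to DMSO-treated cells.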

Target	probe-labelled cysteine peptide fold change (10 µM)	probe-labelled cysteine peptide fold change (50 µM)
INTS3_Q68E01_80_EANDALNAYVCK (UniProt Q68E01)	0.0623	-0.112
IRF8_Q02556_138_LGVATAGCVNEVTEMECGR (UniProt Q02556)	0.226	0.082
IPO13_O94829_309_QAVQNGDMETSHGICR (UniProt O94829)	-0.00126	-0.0261
INTS7_Q9NVH2_352_LAQECCYHNNR (UniProt Q9NVH2)	-0.185	0.117
ITGB5_P18084_602_DGQICSER (UniProt P18084)	-0.826	0.567
ITGB1_P05556_64_CDDLEALKK (UniProt P05556)	-0.158	-0.268
INTS3_Q68E01_866_PCHPDDQFTTSILR (UniProt Q68E01)	-0.261	0.0472
INTS10_Q9NVR2_169_RFPETVVQHGVGLGEALLEAETIEEQESPVNCFR (UniProt Q9NVR2)	0.0259	-0.315
INTS10_Q9NVR2_7_SAQGDCEFLVQR (UniProt Q9NVR2)	-0.0551	-0.821
IPO4_Q8TEX9_400_LLPPLLQIVCK (UniProt Q8TEX9)	-0.0999	-0.376
IRAK3_Q9Y616_399_RGLDSCLSFLDK (UniProt Q9Y616)	0.0279	-0.0603
IPO5_O00410_733_VAAAESMPLLLECAR (UniProt O00410)	-0.0304	-0.00751
IPO5_O00410_682_STACQMLVCYAK (UniProt O00410)	0.0796	-0.0653
INTS12_Q96CB8_182_QMMVASGNQLVECQECHNLYHR (UniProt Q96CB8)	0.0207	0.454
ITGA4_P13612_183_IAPCYQDYVK (UniProt P13612)	0.0498	0.312
IPO11_Q9UI26_252_QFLECSR (UniProt Q9UI26)	-0.0351	0.553
INTS1_Q8N201_1833_VPVPEVLLHSEGAASSSVCK (UniProt Q8N201)	-0.199	-0.262
IRAK3_Q9Y616_572_VNIDPSSEAPGHSCR (UniProt Q9Y616)	-0.282	-0.332
IRF2BP1_Q8IU81_36_GCVNFEGADR (UniProt Q8IU81)	-0.00612	-0.122
ITGAM_P11215_144_GCPQEDSDIAFLIDGSGSIIPHDFRR (UniProt P11215)	-0.132	0.0868
ITPK1_Q13572_185_VAHGTNSHEMAIVFNQEGLNAIQPPCVVQNFINHNAVLYK (UniProt Q13572)	0.199	0.389
IRF2BP2_Q7Z5L9_65_AHGCFPEGR (UniProt Q7Z5L9)	-0.0806	-0.143
ITGB2_P05107_62_CDTRPQLLMR (UniProt P05107)	-0.0136	-0.109
INTS3_Q68E01_959_QNFFSQTPILQALQHVQASCDEAHK (UniProt Q68E01)	-0.123	-0.0115
IREB2_P48200_178_GSCDSGELGR (UniProt P48200)	-0.299	-0.721
IPO4_Q8TEX9_962_DNICGALAR (UniProt Q8TEX9)	0.0138	-0.315
IRF2BP2_Q7Z5L9_40_GCVNYEGADRVEFVIETAR (UniProt Q7Z5L9)	0.123	-0.0852
ITGB3BP_Q13352_127_ELENLIGISCASHFLK (UniProt Q13352)	0.459	0.327
INTS13_Q9NVM9_349_ISPVDVNSRPSSCLTNFLLNGR (UniProt Q9NVM9)	-0.00496	-0.66

For convenience, part of the list above:
Target	probe-labelled cysteine peptide fold change (10 µM)	probe-labelled cysteine peptide fold change (50 µM)
INTS3_Q68E01_959_QNFFSQTPILQALQHVQASCDEAHK (UniProt Q68E01)	-0.123	-0.0115
IREB2_P48200_178_GSCDSGELGR (UniProt P48200)	-0.299	-0.721
